Where a chain is given by its changes, count along the chain named. Results are given in words; binding and its absence hold for the method and conditions named. Some entries that bind do so weakly or less than the wild type. Where a sequence is shown, tags or fusion partners need not be part of it.

T1: BD:ROH1A (Arabidopsis thaliana) (UniProt Q9CAK4)
T1 sequence: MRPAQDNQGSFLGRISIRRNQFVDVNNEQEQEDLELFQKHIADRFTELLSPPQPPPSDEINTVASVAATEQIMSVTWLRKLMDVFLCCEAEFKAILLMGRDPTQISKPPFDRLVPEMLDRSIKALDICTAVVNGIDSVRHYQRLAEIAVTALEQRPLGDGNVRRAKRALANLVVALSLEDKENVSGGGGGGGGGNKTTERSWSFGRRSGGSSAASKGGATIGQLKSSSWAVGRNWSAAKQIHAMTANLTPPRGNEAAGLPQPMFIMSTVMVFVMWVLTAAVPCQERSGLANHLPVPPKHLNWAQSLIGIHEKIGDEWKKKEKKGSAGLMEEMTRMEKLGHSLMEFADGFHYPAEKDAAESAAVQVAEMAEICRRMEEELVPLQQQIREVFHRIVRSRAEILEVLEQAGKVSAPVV

T2: BD:ROH1D (Arabidopsis thaliana) (UniProt Q9CA69)
T2 sequence: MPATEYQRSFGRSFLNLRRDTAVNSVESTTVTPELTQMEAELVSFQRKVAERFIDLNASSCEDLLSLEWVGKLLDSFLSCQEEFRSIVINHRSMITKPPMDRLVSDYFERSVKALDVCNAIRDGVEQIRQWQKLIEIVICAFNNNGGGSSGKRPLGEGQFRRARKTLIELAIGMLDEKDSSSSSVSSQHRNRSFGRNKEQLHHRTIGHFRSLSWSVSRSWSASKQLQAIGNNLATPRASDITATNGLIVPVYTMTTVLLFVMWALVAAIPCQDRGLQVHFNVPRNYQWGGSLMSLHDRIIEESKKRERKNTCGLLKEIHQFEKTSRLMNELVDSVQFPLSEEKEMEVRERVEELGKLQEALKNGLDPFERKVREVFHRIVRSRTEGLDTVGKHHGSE

B1: AD:AtEXO70C2 wild type (protein, UniProt Q9FFX6 1-695)
chain: MEKNDKDPDHDDKSKGDEKGDVVSDAHPSDDAHHQDGISNENVDVVGNAETDHQDPGDNNVDKVSQGEEAPEIRQTLESLSEELDQFLPTLSLHMEEHKDSTEEKGEDGYFQIPQFVGKFLDLFEEKLSKYDSGEPKTVWYQDPEEVSSLLEAVDRVSKLMGLLLNTKSCLDHHESLINHAGSIQQRAMAFLEDEFRIILEESVTKESVVVTDDSNSQRRSTADQQDHQNDVVVSQDHDQMLVPECGDQEIEYPGYPEDVVVVLRKIAEKMKAGGYGWECREVYLVGRRNILMRTLKQDCEFEKVSIDEVQKMSWDTLEREIPIWNKTFKDCSSLFFPGELKLAERIFPGDEGNLFCIVTHGLAIQFLGFAEAVAMTRRSTEKLFKILDIYETLRDSFPAMEELFPEELRSELRNEVTSARSRLGETAIHIFCDLEHSIKSDSSKTPVPGGAVHPLTRYTMNYLKYSCEYKDTLEQVFKSHSKMEREEEEPVESGNSAFASQLMRIMELLDGNLETKSKQYKDIPLSCIFMMNNGRYIVQKIKGSAEIHEVMGDTWCRRRSSELRNYHKNYQRETWGKLLGFLGHEGLMHNGKIVKPNLKERFKSFNATFDEIHKTQTTWVVNDEQLQSELRVSITAVMIPAYRAFMARFGQYLDPGRQTEKYVKYQPEDIEDLIDQLFEGNTSSSSTATARRRT
B2: AD:AtEXO70C2 phospho-mimetic (PM) variant (protein, UniProt Q9FFX6 1-695)
chain: B1 chain with T212E, S215D, S217D, T446E, S494D, S605D
B3: AD:AtEXO70C2 phospho-dead (PD) variant (protein, UniProt Q9FFX6 1-695)
chain: B1 chain with T212A, S215A, S217A, T446A, S494A, S605A

The target in the first assay is T1, BD:ROH1A (Arabidopsis thaliana). Nature of the assay: two-hybrid; … GAL4 system, yeast AH109; ROH1 paralogs fused to the GAL4 DNA-binding domain (pGBKT7), EXO70C2 forms fused to the GAL4 activation domain (pGADT7); serial 30x dilutions spotted on -Trp-Leu, -Trp-Leu-His or -Trp-Leu-His-Ade plates, 3 days.
For the molecule B1, the binding result was “binds”.

For B2, the binding result is given as “binds”.

Regarding B3, the binding entry is “binds”.

The target of a further assay is T2, BD:ROH1D (Arabidopsis thaliana). The assay is described as above.
As for B1, the binding entry is listed as “binds weakly”.

Take B2: the binding entry is “binds weakly”.

Turning to B3, the binding result is “binds weakly”.

For the origin of these results see publication PMC7840542.
